# From the supplement of paper PMC12067093, “Discovery and optimisation of a covalent ligand for TRIM25 and its application to targeted protein ubiquitination” (Chemical Science, 2025)
# The other results are listed elsewhere or left out.
# Compound: CC1Cc2ccccc2N1C(=O)C1CCCN(C1)C(=O)CCl (mixture of isomers) [TRIM25 ligand 11 (diastereomer mixture)]
# Assay: probe-labelled cysteine peptide fold change vs DMSO (competition) (log2 fold change); higher = less target engagement (more negative = stronger competition)
# Details: 10 µM; THP-1; incubation time: 4 h
# 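Also: competitive chemoproteomic profiling in live THP-1 cells with an iodoacetamide desthiobiotin (IA-DTB) probe, comparing probe-labelled peptide intensities in compound-treated cells against DMSO-treated controls.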
row,Target,probe-labelled cysteine peptide fold change
1,DUS3L_Q96G46_396_TVEVDFVDINVGCPIDLVYKK (UniProt Q96G46),-0.169
2,DPF2_Q92785_276_KGPDGLALPNNYCDFCLGDSK (UniProt Q92785),-0.0847
3,DNMT1_P26358_62_NQLCDLETK (UniProt P26358),-0.174
4,DYNC1H1_Q14204_3089_CVLNWFGDWSTEALYQVGK (UniProt Q14204),-0.15
5,DNPEP_Q9ULA0_413_NDTPCGTTIGPILASR (UniProt Q9ULA0),0.199
6,DPYSL2_Q16555_248_AITIANQTNCPLYITK (UniProt Q16555),-0.0281
7,DUSP23_Q9BVJ7_53_GPPHSDSCPGLTLHR (UniProt Q9BVJ7),0.0414
8,DPAGT1_Q9H3H5_42_LCGQDLNK (UniProt Q9H3H5),-0.0164
9,DOT1L_Q8TEK3_750_QNTPQYLASPLDQEVVPCTPSHVGRPR (UniProt Q8TEK3),-0.23
10,DOCK6_Q96HP0_595_SSCSEFTR (UniProt Q96HP0),0.122
11,DTL_Q9NZJ0_544_SSQAEACSESR (UniProt Q9NZJ0),-0.0366
12,DYNC1H1_Q14204_3389_ASLACGPMVK (UniProt Q14204),0.0233
13,DUSP9_Q99956_27_LLLLDCR (UniProt Q99956),-0.0184
14,DUSP23_Q9BVJ7_95_GEAVGVHCALGFGR (UniProt Q9BVJ7),-0.00709
15,DOCK2_Q92608_1408_NAPGQYIQCFTVQPVLDEHPR (UniProt Q92608),0.0558
16,EARS2_Q5JPH6_386_LQVLVEEAFGCQLQNR (UniProt Q5JPH6),0.127
17,DNMT1_P26358_664_CGVCEVCQQPECGK (UniProt P26358),-0.0465
18,DOCK11_Q5JSL3_835_FFHHCQLIQSGSK (UniProt Q5JSL3),0.204

row,Target,probe-labelled cysteine peptide fold change
1,DOCK8_Q8NF50_186_HLNVLCDVSGK (UniProt Q8NF50),-0.0767
2,DPH5_Q9H2P9_161_QNGMHTLCLLDIK (UniProt Q9H2P9),-0.104
3,DOCK6_Q96HP0_1619_HAELGNHAEAAQCMVHAAALVAEYLALLEDHR (UniProt Q96HP0),0.167
4,DOCK5_Q9H7D0_627_DSFQIATLICSTK (UniProt Q9H7D0),-0.0157
5,DTD1_Q8TEA8_84_QYEILCVSQFTLQCVLK (UniProt Q8TEA8),0.378
6,DYNLL1_P63167_24_NADMSEEMQQDSVECATQALEK (UniProt P63167),-0.178
7,EBNA1BP2_Q99848_56_QCLAEFKR (UniProt Q99848),-0.164
8,DOCK11_Q5JSL3_615_NCQNITVEVEEFVPEMTK (UniProt Q5JSL3),0.0107
9,DNMT1_P26358_686_QACQER (UniProt P26358),-0.414
10,DYNC1H1_Q14204_2594_VAAPDVVVPTLDTVRHEALLYTWLAEHKPLVLCGPPGSGK (UniProt Q14204),-0.242
11,DUSP12_Q9UNI6_23_VSCAGQMLEVQPGLYFGGAAAVAEPDHLR (UniProt Q9UNI6),-0.0877
12,DOK3_Q7L591_493_GPAPCDRP (UniProt Q7L591),0.118
13,DPCD_Q9BVM2_164_FSIPDLDRHQLPLDDALLSFAHANCTLIISYQK (UniProt Q9BVM2),0.0459
14,DSCR3_O14972_221_VETCGCAEGYAR (UniProt O14972),0.19
15,DSTN_P60981_23_CSTPEEIK (UniProt P60981),-0.0643
16,DPP8_Q6V1X1_506_CPIKEEIAITSGEWEVLGR (UniProt Q6V1X1),0.0767
17,DYNLT1_P63172_83_NGAGLHTASSCFWDSSTDGSCTVR (UniProt P63172),0.175
18,DOCK8_Q8NF50_170_QTFESETLECSEPAAQAGPR (UniProt Q8NF50),-0.107
